The record followed here is PubChem BioAssay AID256 (DTP/NCI, 2004).

The experiment deals with CD2F1 mice, L1210 leukemia ip, survival T/C. Description: NCI In Vivo Anticancer Drug Screen. Data for tumor model L1210 Leukemia (intraperitoneal) in CD2F1 (CDF1) mice. The following applies: higher T/C = longer survival. An outline of the steps:
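Tumor-bearing mice (transplanted tumor) were split into treated and vehicle control groups, and the measured endpoint of each treated group was divided by that of its vehicle controls.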

Setting [1] is: T/C endpoint: mean survival time, dose: 6.25 mg/kg/injection, schedule: Q01DX009 (ip), vehicle: Klucel (hydroxypropylcellulose) (HPC).
[2] abbreviates: T/C endpoint: mean survival time, dose: 12.5 mg/kg/injection, schedule: Q01DX009 (ip), vehicle: Klucel (hydroxypropylcellulose) (HPC).
Where [3] appears, read: T/C endpoint: mean survival time, dose: 25.0 mg/kg/injection, schedule: Q01DX009 (ip), vehicle: Klucel (hydroxypropylcellulose) (HPC).
The mark [4] stands for this setting: T/C endpoint: mean survival time, dose: 50.0 mg/kg/injection, schedule: Q01DX009 (ip), vehicle: Klucel (hydroxypropylcellulose) (HPC).
The mark [5] stands for this setting: T/C endpoint: mean survival time, dose: 100.0 mg/kg/injection, schedule: Q01DX009 (ip), vehicle: Klucel (hydroxypropylcellulose) (HPC).
Where [6] appears, read: T/C endpoint: mean survival time, dose: 200.0 mg/kg/injection, schedule: Q01DX009 (ip), vehicle: Klucel (hydroxypropylcellulose) (HPC).
[7] abbreviates: T/C endpoint: mean survival time, dose: 100.0 mg/kg/injection, schedule: Q04DX003 (ip), vehicle: saline with Tween-80.
[8] abbreviates: T/C endpoint: mean survival time, dose: 200.0 mg/kg/injection, schedule: Q04DX003 (ip), vehicle: saline with Tween-80.
Setting [9] is: T/C endpoint: mean survival time, dose: 400.0 mg/kg/injection, schedule: Q04DX003 (ip), vehicle: saline with Tween-80.

The list is a part of this screen's results and no random one: it gathers some chemical classes. Not every dose and run of a compound is shown. T/C: endpoint of the treated group in % of that of the vehicle group. Some entries give survivors of the animals treated and no T/C: the source holds a T/C of zero for them, seemingly a mark for toxic or unscored doses. Some doses without a T/C left all or most animals alive at the check, yet need not have been tolerated: the source hardly ever lists a survival T/C far under the control, and the zero likely stands for such cases as well. Survivors were counted at the toxicity check, usually on the fifth day, unless a day is given; later deaths do not show. Schedules are NCI's codes, taken here to give the interval after Q, in days (D) or hours (H), and the number of doses after X. For survival time, this PubChem deposit counts one and a half times the control or more as active, and values a quarter to a half above the control carry no call in these data; other NCI protocols may use other cut-offs. Some entries hold several experiments; the values are given in rising order. Some entries show no survivor count and are marked so; the dose need not have been tolerated. Some T/C values are followed by the survivors on the day toxicity was checked, most often the fifth; where neither a count nor a note follows, no animal had died by that day.

Turning to `CCCCOc1ccc(N(CCCl)CCCl)cc1`, the T/C reads like this: under setting [1], 105 and 110 % of control; under setting [2], 105 and 113 % of control; under setting [3], 110 and 116 % of control; under setting [4], 128 and 137 % of control; under setting [5], 97 % of control. Moreover, the survivor count is reported as 4 of 6 under setting [5] and 2 of 8 under setting [6].

Consider `O=P(NO)(OCc1ccccc1)N(CCCl)CCCl` (stereo unspecified), for which the T/C is, setting by setting: (T/C endpoint: mean survival time, dose: 25.0 mg/kg/injection, schedule: Q01DX001 (ip), vehicle: DMSO) 97 % of control; (T/C endpoint: mean survival time, dose: 50.0 mg/kg/injection, schedule: Q01DX001 (ip), vehicle: DMSO) 100 % of control; (T/C endpoint: mean survival time, dose: 100.0 mg/kg/injection, schedule: Q01DX001 (ip), vehicle: DMSO) 100 % of control; (T/C endpoint: mean survival time, dose: 200.0 mg/kg/injection, schedule: Q01DX001 (ip), vehicle: DMSO) 97 % of control; (T/C endpoint: mean survival time, dose: 400.0 mg/kg/injection, schedule: Q01DX001 (ip), vehicle: DMSO) 105 % of control.

`CC(C)CO[P+](=O)OCC(C)C`: the T/C is, setting by setting: (T/C endpoint: mean survival time, dose: 50.0 mg/kg/injection, schedule: Q04DX003 (ip), vehicle: saline with Tween-80) 94 % of control; under setting [7], 101 % of control; under setting [8], 101 % of control.

On to `Cc1n/c(=N\[N+](=O)[O-])[nH][nH]1`, for which the T/C is, setting by setting: (T/C endpoint: mean survival time, dose: 100.0 mg/kg/injection, schedule: Q01DX001 (ip), vehicle: saline with Tween-80) 94 % of control [survivor count not shown]; (T/C endpoint: mean survival time, dose: 200.0 mg/kg/injection, schedule: Q01DX001 (ip), vehicle: saline with Tween-80) 90 % of control [survivor count not shown]; (T/C endpoint: mean survival time, dose: 400.0 mg/kg/injection, schedule: Q01DX001 (ip), vehicle: saline with Tween-80) 90 % of control [survivor count not shown].

Consider `CC1CC[P+](c2ccccc2)(c2ccccc2)Cc2ccccc21.F[P-](F)(F)(F)(F)F` (stereo unspecified), for which the T/C (T/C endpoint: mean survival time, dose: 25.0 mg/kg/injection, schedule: Q04DX002 (ip), vehicle: saline with Tween-80) is 93 % of control; the T/C (T/C endpoint: mean survival time, dose: 50.0 mg/kg/injection, schedule: Q04DX002 (ip), vehicle: saline with Tween-80) was 96 % of control; the T/C (T/C endpoint: mean survival time, dose: 100.0 mg/kg/injection, schedule: Q04DX002 (ip), vehicle: saline with Tween-80) was 104 % of control.

With `O=[N+]([O-])c1cc([N+](=O)[O-])c(Nc2ccc(Cl)cc2)c([N+](=O)[O-])c1`, the T/C under setting [7] is 101 % of control [survivor count not shown], the T/C under setting [8] was 103 % of control [survivor count not shown] and the T/C under setting [9] is 100 % of control [survivor count not shown].

Take `C1CN1.[Cl][Pt][Cl]`: the T/C reads like this: (T/C endpoint: median survival time, dose: 3.12 mg/kg/injection, schedule: Q04DX003 (ip), vehicle: distilled water + Tween-80) 115 % of control; (T/C endpoint: median survival time, dose: 6.25 mg/kg/injection, schedule: Q04DX003 (ip), vehicle: distilled water + Tween-80) 112 % of control; (T/C endpoint: median survival time, dose: 12.5 mg/kg/injection, schedule: Q04DX003 (ip), vehicle: distilled water + Tween-80) 97 % of control; (T/C endpoint: median survival time, dose: 25.0 mg/kg/injection, schedule: Q04DX003 (ip), vehicle: distilled water + Tween-80) 105 % of control; (T/C endpoint: median survival time, dose: 50.0 mg/kg/injection, schedule: Q04DX003 (ip), vehicle: distilled water + Tween-80) 112 % of control; (T/C endpoint: median survival time, dose: 100.0 mg/kg/injection, schedule: Q04DX003 (ip), vehicle: distilled water + Tween-80) 112 % of control. Further, the T/C (T/C endpoint: median survival time, dose: 200.0 mg/kg/injection, schedule: Q04DX003 (ip), vehicle: distilled water + Tween-80) is 116 % of control.

`CC1=NP(=O)(N(CCCl)CCCl)N=C(C)N1`: the T/C is 104 % of control (T/C endpoint: mean survival time, dose: 31.25 mg/kg/injection, schedule: Q01DX001 (ip), vehicle: water); 100 % of control (T/C endpoint: mean survival time, dose: 62.5 mg/kg/injection, schedule: Q01DX001 (ip), vehicle: water); 98 % of control (T/C endpoint: mean survival time, dose: 125.0 mg/kg/injection, schedule: Q01DX001 (ip), vehicle: water); 98 % of control (T/C endpoint: mean survival time, dose: 250.0 mg/kg/injection, schedule: Q01DX001 (ip), vehicle: water); 104 % of control (T/C endpoint: mean survival time, dose: 500.0 mg/kg/injection, schedule: Q01DX001 (ip), vehicle: water).

Turning to `S=P(Cl)(Cl)N1CCCCCC1`, the T/C reads like this: under setting [7], 104 % of control; under setting [8], 96 % of control. Also, under setting [9], the survivor count is 0 of 6.

As for `O=C(c1ccncc1)N(CCCl)CCCl`, the T/C under setting [4] is 105 % of control, the T/C under setting [5] is 96 % of control and the T/C under setting [6] is 86 % of control.

For the compound `CN(C)P(=O)(OCc1ccccc1)N(CCCl)CCCl` (stereo unspecified), the T/C was 106 % of control (T/C endpoint: mean survival time, dose: 25.0 mg/kg/injection, schedule: Q01DX001 (ip), vehicle: other); 102 % of control (T/C endpoint: mean survival time, dose: 50.0 mg/kg/injection, schedule: Q01DX001 (ip), vehicle: other); 96 % of control (T/C endpoint: mean survival time, dose: 100.0 mg/kg/injection, schedule: Q01DX001 (ip), vehicle: other); 87 % of control (T/C endpoint: mean survival time, dose: 200.0 mg/kg/injection, schedule: Q01DX001 (ip), vehicle: other). In addition, for the setting “T/C endpoint: mean survival time, dose: 400.0 mg/kg/injection, schedule: Q01DX001 (ip), vehicle: other”, the survivor count is 0 of 6.

On to `CC(O)C(C)COP(=O)(N(CCCl)CCCl)N1CC1` (stereo unspecified), for which the T/C is, setting by setting: (T/C endpoint: mean survival time, dose: 15.62 mg/kg/injection, schedule: Q01DX001 (ip), vehicle: DMSO) 97 % of control; (T/C endpoint: mean survival time, dose: 31.3 mg/kg/injection, schedule: Q01DX001 (ip), vehicle: DMSO) 101 % of control; (T/C endpoint: mean survival time, dose: 62.5 mg/kg/injection, schedule: Q01DX001 (ip), vehicle: DMSO) 101 % of control; (T/C endpoint: mean survival time, dose: 125.0 mg/kg/injection, schedule: Q01DX001 (ip), vehicle: DMSO) 129 % of control; (T/C endpoint: mean survival time, dose: 250.0 mg/kg/injection, schedule: Q01DX001 (ip), vehicle: DMSO) 141 % of control. Moreover, for the setting “T/C endpoint: mean survival time, dose: 500.0 mg/kg/injection, schedule: Q01DX001 (ip), vehicle: DMSO”, the survivor count was 2 of 6.

Take `O=[N+]([O-])c1ccc(SC2CCCCC2Cl)c([N+](=O)[O-])c1` (stereo unspecified): the T/C reads like this: (T/C endpoint: mean survival time, dose: 100.0 mg/kg/injection, schedule: Q01DX009 (ip), vehicle: saline with Tween-80) 101 % of control; (T/C endpoint: mean survival time, dose: 200.0 mg/kg/injection, schedule: Q01DX009 (ip), vehicle: saline with Tween-80) 95 % of control; (T/C endpoint: mean survival time, dose: 400.0 mg/kg/injection, schedule: Q01DX009 (ip), vehicle: saline with Tween-80) 97 % of control.

In the case of `CC(=O)NCCSC(O)C(Cl)(Cl)Cl` (stereo unspecified), the T/C was 106 % of control (T/C endpoint: mean survival time, dose: 75.0 mg/kg/injection, schedule: Q04DX003 (ip), vehicle: saline); 97 % of control (T/C endpoint: mean survival time, dose: 150.0 mg/kg/injection, schedule: Q04DX003 (ip), vehicle: saline); 101 % of control (T/C endpoint: mean survival time, dose: 300.0 mg/kg/injection, schedule: Q04DX003 (ip), vehicle: saline).

Regarding `COc1ccc(N(CCCl)CCCl)cc1OC`, the T/C by setting is: under setting [1], 107 % of control; under setting [2], 110 % of control; under setting [3], 107 % of control; under setting [4], 113 % of control. Moreover, the survivor count by setting is: under setting [5], 8 of 8; under setting [6], 1 of 8.

With `COc1cnc2ccccc2n1.O=[N+]([O-])c1cc([N+](=O)[O-])c(O)c([N+](=O)[O-])c1`, the T/C is 103 % of control (T/C endpoint: mean survival time, dose: 100.0 mg/kg/injection, schedule: Q04DX003 (ip), vehicle: saline); 93 % of control (T/C endpoint: mean survival time, dose: 200.0 mg/kg/injection, schedule: Q04DX003 (ip), vehicle: saline); 93 % of control [5 of 6 alive] (T/C endpoint: mean survival time, dose: 400.0 mg/kg/injection, schedule: Q04DX003 (ip), vehicle: saline).

As for `ClP(c1ccccc1)c1ccccc1`, the T/C under setting [7] is 97 % of control, the T/C under setting [8] was 101 % of control and the T/C under setting [9] is 98 % of control.
